# Reference: patent US20060089363A1, “Antibacterial agents” (VERNALIS (OXFORD) LIMITED, priority 2002, published 2006)
# Some results were stated once for a whole list of compounds, not compound by compound. At least one structure is not confirmed: it was looked up by name or label, or the drawing left a doubt.
# System: clinical isolates of S. pneumoniae
# Assay: Antibacterial Assay: MIC by standard agar plate dilution method
# Type: cell-based
# Details: Iso-Sensitest agar with 5% horse blood and NAD, 18 to 24 hr incubation
row,Molecule,range of MICs determined for the Strep. pneumoniae panel
1,"2-[2-Cyclopentylmethyl-3-(formyl-hydroxy-amino)-propionylamino]-N-{1-[2-(2-ehtylsulfanyl-pyridin-3-yl)acetyl]-piperidin-4-yl}-3,3,N-trimethyl-butyramide [Compound 9]",0.125-0.25 ngm/litre
2,"CN(C(=O)[C@@H](NC(=O)[C@H](CC1CCCC1)CN(O)C=O)C(C)(C)C)C1CCN(C(=O)c2csc([N+](=O)[O-])c2)CC1 [Compound 29, 2S-[2R-Cyclopentylmethyl-3-(formyl-hydroxy-amino)-propionylamino]-3,3,N-trimethyl-N-[1-(5-nitro-thiophene-3-carbonyl)-piperidin-4-yl]-butyramide]",<0.125-0.25 ngm/litre
3,"Cc1ccc(C(=O)N2CCC(N(C)C(=O)[C@@H](NC(=O)[C@H](CC3CCCC3)CN(O)C=O)C(C)(C)C)CC2)s1 [Compound 15, 2S-[2R-Cyclopentylmethyl-3-(formyl-hydroxy-amino)-propionylamino]-3,3,N-trimethyl-N-[1-(5-methyl-thiophene-2-carbonyl)-piperidin-4-yl]-butyramide]",< 0.125 ngm/litre
4,"2S-[2R-Cyclopentylmethyl-3-(formyl-hydroxy-amino)-propionylamino]-3,3,N-trimethyl-N-[1-(thiophene-3-carbonyl)-piperidin-4-yl]-butyramide [Compound 37]",<0.125-0.5 ngm/litre
